This assay concerns the target E. coli BirA (biotin retention protein A, biotin protein ligase), wild type (E. coli) (UniProt P06709). Put plainly: condition: only apo (without biotin and MgATP); 10 µM; native MS; apo proteins (no biotinyl-5′-AMP), no DNA, 10 µM protein in 200 mM ammonium acetate pH 6.85, nano-electrospray; dimer to monomers; both purified.

Amino acid sequences for entries named in this document (tags omitted).
UniProt P06709: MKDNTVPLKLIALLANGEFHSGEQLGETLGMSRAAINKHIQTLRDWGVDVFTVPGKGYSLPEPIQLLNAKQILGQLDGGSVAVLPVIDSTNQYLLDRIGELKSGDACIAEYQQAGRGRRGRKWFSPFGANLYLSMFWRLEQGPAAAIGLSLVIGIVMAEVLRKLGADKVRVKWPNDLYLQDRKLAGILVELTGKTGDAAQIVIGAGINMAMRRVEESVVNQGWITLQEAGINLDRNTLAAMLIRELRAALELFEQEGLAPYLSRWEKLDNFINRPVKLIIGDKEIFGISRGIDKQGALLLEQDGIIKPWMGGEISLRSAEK

No constants are given. Whether binding was seen depends on the method and setting.

For “E. coli BirA (biotin retention protein A, biotin protein ligase), wild type (from UniProt P06709 1-321) (enzyme)”, the binding result is “no binding”.

The values above are taken from publication PMC6391492, “Native mass spectrometry identifies an alternative DNA-binding pathway for BirA from Staphylococcus aureus”.
